Source: paper PMC11634737
These are yes or no findings as the source states them, for the method shown. For some of these results: In cells and extracts the contact can be indirect. Some entries that bind do so weakly or less than the wild type. For some of these results: Where a sequence is shown, tags or fusion partners need not be part of it.

Assays:
[1] = target: T1, Flag-PSF (polypyrimidine tract-binding protein-associated splicing factor) (UniProt P23246); test: co-IP; 293T cells transfected with Flag-PSF and HA-G3BP2, harvested after 24 h; immunoprecipitation with anti-Flag or anti-HA antibodies, protein G agarose, western blot
T1 sequence: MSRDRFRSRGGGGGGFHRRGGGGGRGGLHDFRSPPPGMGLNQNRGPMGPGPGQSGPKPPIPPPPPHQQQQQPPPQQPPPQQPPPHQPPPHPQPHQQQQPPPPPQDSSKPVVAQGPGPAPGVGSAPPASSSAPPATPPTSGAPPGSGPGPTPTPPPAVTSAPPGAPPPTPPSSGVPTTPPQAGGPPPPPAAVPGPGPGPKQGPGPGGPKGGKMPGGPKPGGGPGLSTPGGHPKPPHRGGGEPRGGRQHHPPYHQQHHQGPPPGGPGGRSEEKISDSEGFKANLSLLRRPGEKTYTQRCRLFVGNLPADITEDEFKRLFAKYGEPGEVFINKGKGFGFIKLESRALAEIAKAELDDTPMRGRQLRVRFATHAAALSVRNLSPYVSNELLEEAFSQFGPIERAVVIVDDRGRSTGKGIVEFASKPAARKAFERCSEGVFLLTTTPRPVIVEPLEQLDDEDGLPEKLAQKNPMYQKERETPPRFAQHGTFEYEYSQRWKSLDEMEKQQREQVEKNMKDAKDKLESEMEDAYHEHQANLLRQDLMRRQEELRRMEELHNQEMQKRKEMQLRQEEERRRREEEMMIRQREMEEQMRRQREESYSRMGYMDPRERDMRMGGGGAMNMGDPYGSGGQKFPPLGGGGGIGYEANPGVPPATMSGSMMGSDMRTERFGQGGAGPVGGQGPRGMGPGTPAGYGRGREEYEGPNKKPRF

[2] = substrate: T2, PSF, endogenous in SH-SY5Y cells (human (endogenous in SH-SY5Y)) (UniProt P23246); test: co-IP; endogenous proteins, nuclear fraction of SH-SY5Y cells (RIPA buffer), untreated or treated with 100 uM sodium arsenite or 1 mM H2O2 for 1 h; immunoprecipitation with anti-G3BP2, anti-PSF or nonspecific IgG, western blot
T2 sequence: T1 sequence

[3] = substrate: T2, ; test: co-IP; endogenous proteins, cytoplasmic fraction of SH-SY5Y cells (hypotonic solution, 1% NP40), untreated or treated with 100 uM sodium arsenite or 1 mM H2O2 for 1 h; immunoprecipitation with anti-G3BP2, anti-PSF or nonspecific IgG, western blot
purified PSF = target: T3, purified PSF (UniProt P23246); test: in vitro binding assay; purified G3BP2 and purified PSF; format not told in the text shown (Figure S2c); both purified
T3 sequence: T1 sequence

B1: HA-G3BP2 (RasGAP-associated endoribonuclease 2) (protein, UniProt Q9UN86 1-482)
chain: MVMEKPSPLLVGREFVRQYYTLLNKAPEYLHRFYGRNSSYVHGGVDASGKPQEAVYGQNDIHHKVLSLNFSECHTKIRHVDAHATLSDGVVVQVMGLLSNSGQPERKFMQTFVLAPEGSVPNKFYVHNDMFRYEDEVFGDSEPELDEESEDEVEEEQEERQPSPEPVQENANSGYYEAHPVTNGIEEPLEESSHEPEPEPESETKTEELKPQVEEKNLEELEEKSTTPPPAEPVSLPQEPPKAFSWASVTSKNLPPSGTVSSSGIPPHVKAPVSQPRVEAKPEVQSQPPRVREQRPRERPGFPPRGPRPGRGDMEQNDSDNRRIIRYPDSHQLFVGNLPHDIDENELKEFFMSFGNVVELRINTKGVGGKLPNFGFVVFDDSEPVQRILIAKPIMFRGEVRLNVEEKKTRAARERETRGGGDDRRDIRRNDRGPGGPRGIVGGGMMRDRDGRGPPPRGGMAQKLGSGRGTGQMEGRFTGQRR
binding [1]: binds

B2: G3BP2, endogenous in SH-SY5Y cells (protein, UniProt Q9UN86 1-482)
chain: B1 chain
binding [2]: binds
binding [3]: binds

B3: purified G3BP2 (protein, UniProt Q9UN86 1-482)
chain: B1 chain
binding (purified PSF): binds
